{"source": "patent US20180223285", "key": {"human C5a (Homo sapiens) [1]": {"molecular_target": "T1, human C5a (Homo sapiens) (UniProt P01031)", "T1 sequence": "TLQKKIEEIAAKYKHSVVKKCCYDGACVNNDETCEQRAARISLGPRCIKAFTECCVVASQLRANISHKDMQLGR", "assay": "SPR", "settings": "L-RNA, purified recombinant protein, protein details: recombinant, amine-coupled to CM5 chip for SPR, synthetic backbone"}, "human C5a (Homo sapiens) [2]": {"molecular_target": "T1, human C5a (Homo sapiens)", "assay": "activity in cells", "settings": "L-RNA, 5' 40 kDa PEG, chemotaxis of BA/F3-huC5aR cells, 0.1 nM huC5a, 37 C, purified recombinant protein, protein details: recombinant, amine-coupled to CM5 chip for SPR, synthetic backbone, mirror-image nucleic acid"}, "mouse C5a (Mus musculus) [3]": {"molecular_target": "T2, mouse C5a (Mus musculus) (UniProt P06684)", "T2 sequence": "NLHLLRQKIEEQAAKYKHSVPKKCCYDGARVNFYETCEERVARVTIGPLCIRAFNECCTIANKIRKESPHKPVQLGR", "assay": "SPR", "settings": "L-RNA, purified recombinant protein, protein details: amine-coupled to CM5 chip for SPR, synthetic backbone, mirror-image nucleic acid"}, "[4]": {"molecular_target": "T3, rat C5a (Rattus norvegicus) (UniProt P08650)", "T3 sequence": "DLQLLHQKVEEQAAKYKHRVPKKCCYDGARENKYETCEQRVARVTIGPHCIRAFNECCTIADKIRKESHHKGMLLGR", "assay": "SPR", "settings": "L-RNA; L-2'-deoxy dU7,dG14,dA15,dU28,dU30,dC38; 5' 40 kDa PEG; no binding up to 1000 nM; purified recombinant protein; synthetic backbone; mirror-image nucleic acid; variant of NOX-D20001 (NOX-D19001-6xDNA-020)"}, "[5]": {"test_system": "T4, rhesus monkey C5a (Macaca mulatta)", "T4 sequence": "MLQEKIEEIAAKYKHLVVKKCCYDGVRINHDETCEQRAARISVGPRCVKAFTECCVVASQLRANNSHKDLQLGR", "assay": "SPR", "settings": "L-RNA; L-2'-deoxy dU7,dG14,dA15,dU28,dU30,dC38; 5' 40 kDa PEG; no binding up to 1000 nM; purified recombinant protein; synthetic backbone; mirror-image nucleic acid; variant of NOX-D20001 (NOX-D19001-6xDNA-020)"}, "mouse C5a (Mus musculus) [6]": {"molecular_target": "T2, mouse C5a (Mus musculus)", "assay": "activity in cells", "settings": "L-RNA; L-2'-deoxy dU7,dG14,dA15,dU28,dU30,dC38; 5' 40 kDa PEG; chemotaxis of BA/F3-huC5aR cells, 0.3 nM mC5a; assay limit 150 pM; purified recombinant protein; protein details: amine-coupled to CM5 chip for SPR; synthetic backbone; mirror-image nucleic acid; variant of NOX-D20001 (NOX-D19001-6xDNA-020)"}, "[7]": {"settings": "L-2'-deoxy dU8,dG15,dA16,dU29,dU31,dC39, mirror-image nucleic acid, variant of NOX-D19001-6xDNA (D09-16-17-30-32-40)"}, "[8]": {"settings": "L-2'-deoxy dU6,dG13,dA14,dU27,dU29,dC37, mirror-image nucleic acid, variant of NOX-D19001-6xDNA (D09-16-17-30-32-40)"}, "[9]": {"settings": "L-2'-deoxy dU7,dG14,dA15,dU28,dU30,dC38, mirror-image nucleic acid, variant of NOX-D19001-6xDNA (D09-16-17-30-32-40)"}, "[10]": {"settings": "among best binders, mirror-image nucleic …"}}, "note": "pIC50: −log10 of the molar value. For at least one entry, the source does not settle the construct or the ends of the probe. For part of these data: No signal at the amounts used counts as a negative. Protein sequences can lack the tags named with them.", "data": [{"sequence": "CCUGAUGUGGUGGUGAAGGGUUGUUGGGUGUCGACGCACAGGC [NOX-D19001-6xDNA-007]", "values": [{"measurement": "binding result", "setting": "human C5a (Homo sapiens) [1]; [7]", "result": "binds"}]}, {"sequence": "CGAUGUGGUGGUGAAGGGUUGUUGGGUGUCGACGCACAGC [NOX-D19001-6xDNA-023]", "values": [{"measurement": "binding result", "setting": "human C5a (Homo sapiens) [1]; [8]", "result": "binds"}]}, {"sequence": "CGAUGUGGUGGUGAAGGGUUGUUGGGUGUCGACGCACGC [NOX-D19001-6xDNA-028]", "values": [{"measurement": "binding result", "setting": "human C5a (Homo sapiens) [1]; [8]", "result": "binds"}]}, {"sequence": "CGCACGCAGCUGUGGGUUGUUGGGAAGUGGUGGUGUAGCG [revNOX-D21]", "values": [{"measurement": "binding result", "setting": "human C5a (Homo sapiens) [1]; L-2'-deoxy dC3,dU13,dU34, 5' 40 kDa PEG, reverse-sequence control, earlier shown not to inhibit C5a in Biacore and cell assays, mirror-image nucleic acid", "result": "no binding"}]}, {"sequence": "CGGACACGCAGCUGUGGGUUGUUGGGAAGUGGUGGUGUAGUCCG [revNOX-D19]", "values": [{"measurement": "binding result", "setting": "human C5a (Homo sapiens) [1]; 5' 40 kDa PEG, reverse-sequence control, earlier shown not to inhibit C5a in Biacore and cell assays, mirror-image nucleic acid, variant of NOX-D19 (NOX-D19001-5'40kDa-PEG)", "result": "no binding"}]}, {"sequence": "CUGAUGUGGUGGUGAAGGGUUGUUGGGUGUCGACGCACAGC [NOX-D19001-6xDNA-021]", "values": [{"measurement": "binding result", "setting": "human C5a (Homo sapiens) [1]; [9]", "result": "binds"}]}, {"sequence": "CUGAUGUGGUGGUGAAGGGUUGUUGGGUGUCGACGCACAGGC [NOX-D19001-6xDNA-008]", "values": [{"measurement": "binding result", "setting": "human C5a (Homo sapiens) [1]; [9]", "result": "binds"}]}, {"sequence": "GCCGAUGUGGUGGUGAAGGGUUGUUGGGUGUCGACGCACGGC [NOX-D19001-6xDNA-018]", "values": [{"measurement": "binding result", "setting": "human C5a (Homo sapiens) [1]; [7]", "result": "binds"}]}, {"sequence": "GCCUGAUGUGGUGGUGAAGGGUUGUUGGGUGUCGACGCACAGGC [NOX-D19 (NOX-D19001-5'40kDa-PEG)]", "values": [{"measurement": "pIC50", "setting": "human C5a (Homo sapiens) [2]; variant of NOX-D19001 (274-C8-002-G14)", "result": 8.72}]}, {"sequence": "GCCUGAUGUGGUGGUGAGGGGAUGUGGGGUGUCGACGCACAGGC [274-G6-002]", "values": [{"measurement": "binding result", "setting": "human C5a (Homo sapiens) [1]; mirror-image nucleic acid", "result": "binds"}, {"measurement": "binding result", "setting": "mouse C5a (Mus musculus) [3]", "result": "binds"}]}, {"sequence": "GCCUGAUGUGGUGGUGAGGGGUUGUGGGGUGUCGACGCACAGGC [274-C5-002]", "values": [{"measurement": "binding result", "setting": "human C5a (Homo sapiens) [1]; [10]", "result": "binds"}, {"measurement": "binding result", "setting": "mouse C5a (Mus musculus) [3]; among best binders", "result": "binds"}]}, {"sequence": "GCCUGAUGUGGUGUUGAAGGGUUGUGGGGUGUCGACGCACAGGC [274-B5-002]", "values": [{"measurement": "binding result", "setting": "human C5a (Homo sapiens) [1]; mirror-image nucleic acid", "result": "binds"}, {"measurement": "binding result", "setting": "mouse C5a (Mus musculus) [3]", "result": "binds"}]}, {"sequence": "GCCUGAUGUGGUGUUGAAGGGUUGUUGGGUGUCGACGCACAGGC [274-C8-002]", "values": [{"measurement": "binding result", "setting": "human C5a (Homo sapiens) [1]; [10]", "result": "binds"}, {"measurement": "binding result", "setting": "mouse C5a (Mus musculus) [3]; among best binders", "result": "binds"}]}, {"sequence": "GCCUGAUGUGGUGUUGAGGGGUUGUGGGGUGUCGACGCACAGGC [274-D5-002]", "values": [{"measurement": "binding result", "setting": "human C5a (Homo sapiens) [1]; mirror-image nucleic acid", "result": "binds"}, {"measurement": "binding result", "setting": "mouse C5a (Mus musculus) [3]", "result": "binds"}]}, {"sequence": "GCGAUGUGGUGGUGAAGGGUUGUUGGGUGUCGACGCACC [NOX-D19001-6xDNA-030]", "values": [{"measurement": "binding result", "setting": "human C5a (Homo sapiens) [1]; [9]", "result": "binds"}]}, {"sequence": "GCGAUGUGGUGGUGAAGGGUUGUUGGGUGUCGACGCACGC [NOX-D20 (NOX-D19001-6xDNA-020-5'40kDa-PEG)]", "values": [{"measurement": "binding result", "setting": "[4]", "result": "no binding"}, {"measurement": "binding result", "setting": "[5]", "result": "no binding"}, {"measurement": "pIC50", "setting": "human C5a (Homo sapiens) [2]; L-2'-deoxy dU7,dG14,dA15,dU28,dU30,dC38, variant of NOX-D20001 (NOX-D19001-6xDNA-020)", "result": 9.56}, {"measurement": "pIC50", "setting": "mouse C5a (Mus musculus) [6]", "result": 9.85}]}, {"sequence": "GCGAUGUGGUGGUGAAGGGUUGUUGGGUGUCGACGCACGC [NOX-D21 (NOX-D19001-2dU-1dC-020-5'40kDa-PEG)]", "values": [{"measurement": "pIC50", "setting": "human C5a (Homo sapiens) [2]; L-2'-deoxy dU7,dU28,dC38, variant of NOX-D21001 (NOX-D19001-2dU-1dC-020)", "result": 9.32}]}, {"sequence": "GCGAUGUGGUGGUGAAGGGUUGUUGGGUGUCGACGCACGC [NOX-D19001-1xDNA-020]", "values": [{"measurement": "binding result", "setting": "human C5a (Homo sapiens) [1]; L-2'-deoxy dU7, mirror-image nucleic acid, variant of NOX-D19001-020", "result": "binds"}]}, {"sequence": "GCUGAUGUGGUGGUGAAGGGUUGUUGGGUGUCGACGCACA [NOX-D19001-6xDNA-027]", "values": [{"measurement": "binding result", "setting": "human C5a (Homo sapiens) [1]; [7]", "result": "binds"}]}, {"sequence": "GCUGAUGUGGUGGUGAAGGGUUGUUGGGUGUCGACGCACAC [NOX-D19001-6xDNA-025]", "values": [{"measurement": "binding result", "setting": "human C5a (Homo sapiens) [1]; [7]", "result": "binds"}]}, {"sequence": "GCUGAUGUGGUGGUGAAGGGUUGUUGGGUGUCGACGCACAGC [NOX-D19001-6xDNA-011]", "values": [{"measurement": "binding result", "setting": "human C5a (Homo sapiens) [1]; [7]", "result": "binds"}]}, {"sequence": "GCUGAUGUGGUGGUGAAGGGUUGUUGGGUGUCGACGCACC [NOX-D19001-6xDNA-026]", "values": [{"measurement": "binding result", "setting": "human C5a (Homo sapiens) [1]; [7]", "result": "binds"}]}, {"sequence": "GGAUGUGGUGGUGAAGGGUUGUUGGGUGUCGACGCACC [NOX-D19001-6xDNA-033]", "values": [{"measurement": "binding result", "setting": "human C5a (Homo sapiens) [1]; [8]", "result": "binds"}]}, {"sequence": "GGCGAUGUGGUGGUGAAGGGUUGUUGGGUGUCGACGCACGCC [NOX-D19001-6xDNA-019]", "values": [{"measurement": "binding result", "setting": "human C5a (Homo sapiens) [1]; [7]", "result": "binds"}]}, {"sequence": "GUGAUGUGGUGGUGAAGGGUUGUUGGGUGUCGACGCACAC [NOX-D19001-6xDNA-012]", "values": [{"measurement": "binding result", "setting": "human C5a (Homo sapiens) [1]; [9]", "result": "binds"}]}, {"sequence": "UGAUGUGGUGGUGAAGGGUUGUUGGGUGUCGACGCACA [NOX-D19001-6xDNA-013]", "values": [{"measurement": "binding result", "setting": "human C5a (Homo sapiens) [1]; [8]", "result": "binds"}]}, {"sequence": "UGAUGUGGUGGUGAAGGGUUGUUGGGUGUCGACGCACAGC [NOX-D19001-6xDNA-022]", "values": [{"measurement": "binding result", "setting": "human C5a (Homo sapiens) [1]; [8]", "result": "binds"}]}, {"sequence": "UGAUGUGGUGGUGAAGGGUUGUUGGGUGUCGACGCACAGGC [NOX-D19001-6xDNA-009]", "values": [{"measurement": "binding result", "setting": "human C5a (Homo sapiens) [1]; [8]", "result": "binds"}]}]}
